{"source": "patent US20260209300A1", "binders": {"B1": {"name": "SAFA-IL-2m2 (APB-R4) (protein)", "heavy": "QVQLVQSGGGPVKPGGSLRLSCAASGFMFRAYSMNWVRQAPGKGLEWVSSISSSGRYIHYADSVKGRFTISRDNAKNSLYLQMNSLRAEDTAVYYCARETVMAGKALDYWGQGTLVTVSSASTKGPSVFPLAPSSKSTSEGTAALGCLVKDYFPEPVTVSWNSGALTSGVHTFPAVLQSSGLYSLSSVVTVPSSSLGTQTYICNVNHKPSNTKVDKKVEPKSSGGGGSGGGGSAPTSSSTKKTQLQLEHLLLDLQMILNGINNYKNPKLTRMLTFKFYMPKKATELKHLQCLEEELKPLEEVLNLAQSKNFHLRPRDLISRINDIVLELKGSETTFSCEYADETATIVEFLNRWITFAQSIISTLT", "light": "DIVLTQSPGTLSLSPGETATLSCRASQSVGSNLAWYQQKPGQAPRLLIYGASTGATGVPARFSGSRSGTDFTLTITSLQPEDFATYYCQQYYSFLAKTFGQGTQLEIKRTVAAPSVFIFPPSDEQLKSGTASVVCLLNNFYPREAKVQWKVDNALQSGNSQESVTEQDSKDSTYSLSNTLTLSKADYEKHKVYACEVTHQGLSSPVTKSFNRGES"}}, "molecular_target": "IL-2 receptor alpha (Homo sapiens (Human))", "test": "ELISA", "note": "These are yes or no findings as the source states them, for the method shown. A result given as binding can be weak or reduced; the word gives no strength."}
{"binder": "B1", "values": [{"measurement": "binding", "value": "binds"}]}
